At least one compound was matched to its structure with a doubt left.
Assay: Emission spectra and absolute fluorescence quantum yield in dichloromethane (integrating sphere)
Type: physicochemical
Conditions: quantum efficiency defined as εΦF
Description: The absorption, emission, and photostability properties of flavylium dyes 3-6 were measured.
Finally, the photoluminescence of Flav7 was compared to the prominent SWIR polymethine dyes, IR-26 and IR-1061. IR-26 has been widely-employed as a standard for this region, while IR-1061 has recently been the active component of nanomaterials for NIR-II in vivo imaging. Despite numerous studies which rely on these dyes, the reported ΦF for IR-26 have been inconsistent, and the ΦF of IR-1061 has yet to be thoroughly characterized. Consequently, to establish that Flav7 is more emissive than existing SWIR polymethine dyes, each dye's emission was directly compared using a SWIR camera. We prepared solutions of 3, IR-26, and IR-1061 in dichloromethane with identical absorbance at 808 nm, excited with a diffuse 808 nm laser, and imaged their emission over 1000-1500 nm.
The absorbance spectra in FIG. 2 and FIGS. 4A-4G were obtained in DCM on a JASCO V-770 UV-Visible/NIR spectrophotometer with a 2000 nm/min or 4000 nm/min scan rate. […]
Polymethine dyes disclosed herein are characterized with respect to their photophysics including absorption, emission, extinction coefficient, quantum yields, and fluorescence lifetime. All quantum yields values obtained are absolute quantum yields values measured using an integrating sphere. Photostabilities are evaluated by sample irradiation with high powered LEDs. […]

CN(C)c1ccc2c(c1)OC(c1ccccc1)=C\C2=C/C=C/C=C/c1cc(-c2ccccc2)[o+]c2cc(N(C)C)ccc12.[O-][Cl+3]([O-])([O-])[O-] [Dye 4, 7-(dimethylamino)-4-((1E,3E)-5-((E)-7-(dimethylamino)-2-phenyl-4H-chromen-4-ylidene)penta-1,3-dien-1-yl)-2-phenylchromenylium perchlorate]
QE, εΦF: 10^3 M^−1cm^−1
